# The whole screen tested about 320,000 compounds, of which about 22,000 (6.9%) were called active. The shares of active, inactive and inconclusive entries below differ from those in the screen. Calls follow the shape of the dose curve; as a rule, active = well fitted inhibition curve with a large enough effect; inconclusive = small, poorly fitted or top-dose-only effect, or another doubt; inactive = no such curve, though single readings can be large or run the other way. Where the call is inconclusive, the potency comes from a doubtful curve fit.
# Test: Primary qHTS for delayed death inhibitors of the malarial parasite plastid, 96 hour incubation
# Conditions: P. falciparum luciferase reporter growth; series mostly up to 28.7 µM; activity change, negative = inhibition: at the top concentration
# Outline: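 P. falciparum expressing integrated firefly luciferase, in erythrocytes at 2% hematocrit, 0.05% parasitemia, incubated with compounds 96 h at 37 C, 5% CO2. Growth inhibition read as loss of luminescence; two-generation exposure targets delayed-death apicoplast inhibitors.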
# % is scaled to controls: 0 for no effect and ±100 for the full control effect; potency is read from the fitted curve at half-maximal effect.
Structure (SMILES),Potency,"activity change, negative = inhibition"
COc1ccccc1N1CCN(C(=O)c2cc3c(s2)CCC3)CC1,active: 13.1 µM,
O=C(Nc1cccc(C(F)(F)F)c1)c1ccc(-n2cncn2)nc1,"inconclusive: 3.7 µM [inhibitor, partial curve, poor fit]",
Cc1ccc(CSc2nc3sc(C)c(C)c3c(=O)n2Cc2ccco2)cc1,"inconclusive: 11.7 µM [inhibitor, partial curve, poor fit]",
COc1ccc(/C=C2/C(=O)N(c3ccccc3)N=C2C)cc1OC,,inactive: 99.9%
CC1CCCC(NC(=O)CN(C)CC(=O)Nc2cccc(F)c2)C1C (stereo unspecified),"inconclusive: 18.5 µM [inhibitor, single point]",
COc1ccc(-c2csc(NC(=O)CC(NC(C)=O)c3ccccc3)n2)cc1OC (stereo unspecified),,inactive: -20%
Cc1nc2ccccc2n1CCCOc1ccccc1,"inconclusive: 11.7 µM [inhibitor, single point]",
CC(=O)c1ccc(N2CCN(C(=O)CCCn3c(=O)[nH]c4ccc(Br)cc4c3=O)CC2)cc1,"inconclusive: 18.5 µM [inhibitor, single point]",
O=C(Nc1ccccc1O)c1ccc(C(=O)c2ccccc2)o1,"inconclusive: 13.1 µM [inhibitor, single point]",
O=C1C(=O)N(CCN2CCOCC2)C(c2ccc(Cl)cc2)/C1=C(/O)c1ccc(S(=O)(=O)N2CCOCC2)cc1 (stereo unspecified),active: 2.62 µM,
CN(C)C(=O)CN1CCN(C(=O)CCl)CC1,"inconclusive: 18.5 µM [inhibitor, single point]",
COc1ccc(/C=C(\NC(=O)c2cccs2)C(=O)NCc2ccco2)cc1OC,,inactive: -19.1%
Cc1nnc2sc(-c3ccc(N(C)C)cc3)nn2c1=O,active: 10.4 µM,
CC(C)CC(=O)NC1(C(F)(F)F)C(=O)N(CC(C)C)C2=C1C(=O)CC(C)(C)C2 (stereo unspecified),,inactive: -2.5%
Cn1c2ccc(F)cc2c2ncn(CCCN(CCO)CCO)c(=O)c21,"inconclusive: 18.5 µM [inhibitor, single point]",
Cc1cc(Cl)ccc1NC(=S)N1CCN(C(=O)c2ccco2)CC1,,inactive: -19.6%
CCN(CC)C(=O)c1ccc(NC(=O)c2cccc(S(=O)(=O)N3CCN(C)CC3)c2)cc1,"inconclusive: 13.1 µM [inhibitor, single point]",
O=C(CN1CCN(Cc2ccccc2Cl)CC1)N/N=C/C=C\c1ccccc1[N+](=O)[O-],,inactive: 0%

# Part of the list above, with tabs:
Structure (SMILES)	Potency	activity change, negative = inhibition
Cn1c2ccc(F)cc2c2ncn(CCCN(CCO)CCO)c(=O)c21	inconclusive: 18.5 µM [inhibitor, single point]	
Cc1cc(Cl)ccc1NC(=S)N1CCN(C(=O)c2ccco2)CC1		inactive: -19.6%

# The list goes on.

Structure (SMILES),Potency,"activity change, negative = inhibition"
Cc1ccc(-n2ncc(C(=O)NCC3CCN(C4CCCC4)C3)c2C2CCN(C(=O)OC(C)(C)C)CC2)cc1 (stereo unspecified),"inconclusive: 10.4 µM [inhibitor, single point]",
O=C(O)CCc1ccc(-c2cccs2)n1CCc1ccccc1,"inconclusive: 4.15 µM [inhibitor, single point]",
CC(=O)N(CN1C(=O)c2ccccc2C1=O)c1cccc(C)c1,,inactive: 47.1%
COc1cccc(C2C(C(N)=O)=C(C)Nc3nc(-c4ccccc4Cl)nn32)c1 (stereo unspecified),"inconclusive: 16.5 µM [inhibitor, single point]",
CCOC(=O)C1=C(C)NC2=C(C(=O)CC(C)(C)C2)C1c1ccsc1 (stereo unspecified),active: 7.38 µM,
O=C1c2ccccc2NC(c2ccccc2)N1Cc1ccco1 (stereo unspecified),,inactive: -6%
CC(C)NCC(O)COc1ccccc1-n1cccc1 (stereo unspecified),"inconclusive: 1.69 µM [inhibitor, partial curve, poor fit]",
O=C(Nc1nc(-c2ccccn2)cs1)C1CCCC1,"inconclusive: 1.65 µM [inhibitor, full curve, poor fit]",
Cc1ccccc1NN1C(=O)C=CC1=O,"inconclusive: 18.5 µM [inhibitor, single point]",
CCOC(=O)CNC(=O)CSc1nnc(-c2ccco2)n1N,"inconclusive: 16.5 µM [inhibitor, single point]",
COc1ccc(/C=N/OC(=O)Nc2ccc(Cl)cc2)c(OC)c1,,inactive: 49.5%
O=C(NCc1ccccc1)C(c1ccccc1)N(C(=O)c1csnn1)C1CCCC1 (stereo unspecified),"inconclusive: 13.1 µM [inhibitor, partial curve, poor fit]",
COc1ccc(/C=C/C(=O)CCC(=O)O)cc1,,inactive: 4.16%
Cc1[nH]c2ccccc2c1/C=N/NC(=O)c1cc(-c2cccs2)[nH]n1,"inconclusive: 18.5 µM [inhibitor, single point]",
COCCCn1c(C)nnc1-c1cnn(-c2ccccc2)c1N,,inactive: 19.7%
COc1cc(OC)cc(N(C(=O)C2COc3ccccc3O2)C(C(=O)NC2CCCCC2)c2ccc(O)cc2)c1 (stereo unspecified),active: 7.38 µM,
COC(=O)COc1ccc(-n2cnnn2)cc1,,inactive: 14.9%
CCC(CC)NC(=O)Cc1ccccc1OC,"inconclusive: 20.8 µM [inhibitor, single point]",

# — PubChem BioAssay AID504834 (National Center for Advancing Translational Sciences (NCATS), 2011)
